No constants are given. Whether binding was seen depends on the method and setting. Some entries that bind do so weakly or less than the wild type.

The chains behind the UniProt entries cited, without tags or fusion partners.
UniProt O15525: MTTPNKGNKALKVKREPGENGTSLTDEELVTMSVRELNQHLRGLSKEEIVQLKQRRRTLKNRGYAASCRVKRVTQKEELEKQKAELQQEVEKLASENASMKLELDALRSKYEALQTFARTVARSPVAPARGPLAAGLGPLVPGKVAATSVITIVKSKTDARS

The experiment concerns the target MafG (UniProt O15525). Kind of experiment: EMSA with 293 nuclear extracts co-expressing NF-E2 and MafG, 32P-labelled NF-E2 site oligonucleotide. (In general: A gel shift assay detects complexes by their altered migration in electrophoresis.)

B1: wild-type transcription factor NF-E2 (Nuclear factor erythroid-2) (protein)
chain: MSPCPPQQSRNRVIQLSTSELGEMELTWQEIMSITELQGLNAPSEPSFEPQAPAPYLGPPPPTTYCPCSIHPDSGFPLPPPPYELPASTSHVPDPPYSYGNMAIPVSKPLSLSGLLSEPLQDPLALLDIGLPAGPPKPQEDPESDSGLSLNYSDAESLELEGTEAGRRRSEYVEMYPVEYPYSLMPNSLAHSNYTLPAAETPLALEPSSGPVRAKPTARGEAGSRDERRALAMKIPFPTDKIVNLPVDDFNELLARYPLTESQLALVRDIRRRGKNKVAAQNCRKRKLETIVQLERELERLTNERERLLRARGEADRTLEVMRQQLTELYRDIFQHLRDESGNSYSPEEYALQQAADGTIFLVPRGTKMEATD
For B1, the binding result was “binds”.

(Values after patent US20150017642A1.)
